# In patent publication US6391305B1 (priority 1999, dated 2002):
# Assay: Boc solid-phase peptide synthesis; Boc-Leu-PAM resin; DCC and HOBT in methyl-2-pyrrolidinone
# Details: whole synthesis, HPLC at 214 (Vydac C18); amino acid composition analysis; FAB mass spectral analysis, scale 0.5 mmol
substance,measurement,value
2-HO-Ac-Ser-Ser-Ser-Chg-Ser-Leu-OH,final HPLC purity,at least 99% (HPLC)
